{"source": "patent US20040018228A1", "about": "“Compositions and methods for reducing scar tissue formation” (Afmedica, Inc., priority 2000, published 2004)", "origin": "cited, not measured here", "key": {"smooth muscle cell (SMC)": {"system": "smooth muscle cell (SMC)", "details": "in vitro"}, "keloids": {"system": "keloids", "details": "in vivo"}, "[1]": {"details": "renal transplantation"}, "[2]": {"details": "in vivo"}, "arteries": {"system": "arteries", "details": "stents coated with sirolimus versus stents coated with paclitaxel"}}, "note": "Read-outs that look alike come from different tables or passages of the source. For at least one compound, name, drawing or mass did not settle the structure."}
{"smiles": "CO[C@H]1C[C@@H]2CC[C@@H](C)[C@@](O)(O2)C(=O)C(=O)N2CCCC[C@H]2C(=O)O[C@H]([C@H](C)C[C@@H]2CC[C@@H](O)[C@H](OC)C2)CC(=O)[C@H](C)/C=C(\\C)[C@@H](O)[C@@H](OC)C(=O)[C@H](C)C[C@H](C)/C=C/C=C/C=C/1C", "note": "[sirolimus]", "values": [{"measurement": "smooth muscle cell (SMC) proliferation and migration", "setting": "smooth muscle cell (SMC)", "result": "inhibit smooth muscle cell (SMC) proliferation and migration in vitro"}, {"measurement": "treatment of keloids", "setting": "keloids", "result": "effectively treat keloids"}, {"measurement": "rate of acute rejection episodes within 12 months", "setting": "[1]; 2 mg/day sirolimus in combination with CsA and steroids", "result": 19, "unit": "%"}, {"measurement": "rate of acute rejection episodes within 12 months", "setting": "[1]; 5 mg/day sirolimus in combination with CsA and steroids", "result": 14, "unit": "%"}, {"measurement": "neointima formation", "setting": "[2]", "result": "reduce in vivo neointima formation"}, {"measurement": "neointimal tissue growth", "setting": "arteries", "result": "less neointimal tissue growth"}]}
